Record: PubChem BioAssay AID686937 (Drosophila RNAi Screening Center, 2013)
Aim: 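Genes whose loss weakens secretory pathway function in fly cells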 (primary screen). Cells: Drosophila S2 cells expressing secreted horseradish peroxidase. Reagent: long dsRNA against Drosophila genes. Timing: about 5.5 days (5 days dsRNA, then 12 h reporter induction). Conditions: reporter expression induced after 5 days of dsRNA, read 12 h later; inducer not stated. Read-out: 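Chemiluminescent measurement of peroxidase in the medium 12 h after reporter induction, following 5 days of dsRNA, given as a z-score per plate; higher means more secretion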. Reading the numbers: z-score: higher = more reporter secreted into medium.
In all, the deposit lists about 23,000 reagents; shown is an unselected part of those with a known target gene and a result. 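Reduced-secretion tags in replicate 1 do not always agree with the z-scores; no criterion for assigning the tags was given.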 Names joined by + are all predicted targets of the reagent. Not stated in the record: the amount of reagent.

predicted target | amplicon | z-score, replicate 1 | z-score, replicate 2 | z-score, replicate 3 | z-score, replicate 4 | phenotype, replicate 1
Spn88Eb | DRSC16093 | 0.44 | 0.34 | – | – | –
levy | DRSC04289 | -0.13 | 0.17 | – | – | –
Tim17a1 | DRSC14184 | 0.26 | 0.56 | – | – | –
bru3 | DRSC09280 | 0.4 | 0.25 | 0.37 | 0.25 | –
bru3 | DRSC09291 | -0.06 | 0.58 | – | – | –
bru3 | DRSC09292 | 0.03 | 0.51 | – | – | –
bru3 | DRSC09687 | 0.25 | 0.25 | – | – | –
bru3 | DRSC09887 | 0.02 | 0.28 | – | – | –
bru3 | DRSC22732 | 0.31 | -0.23 | – | – | –
Ggamma1 | DRSC07435 | 0.36 | 0.44 | – | – | –
CG6966 | DRSC16156 | -0.07 | 0.04 | – | – | –
Ras85D | DRSC16814 | -2.11 | -0.8 | – | – | reduced secretion
fusl | DRSC02351 | 0.07 | 0.14 | – | – | –
CG5618 | DRSC11780 | 0.22 | 0.44 | – | – | –
Asap | DRSC06493 | 0.49 | 0.46 | – | – | –
Asap | DRSC06830 | 0.16 | 0.26 | – | – | –
Dbp73D | DRSC11142 | 0.39 | 0.31 | – | – | –
erm | DRSC00700 | 0.25 | 0.28 | – | – | –
blanks | DRSC09757 | 0.55 | 0.4 | – | – | –
CG3176 + CR18166 + CG32817 | DRSC17271 | 0.45 | -0.44 | – | – | –
CG3176 + CR18166 + CG32817 | DRSC17282 | 0.4 | 0.33 | – | – | –
CG3176 + CR18166 + CG32817 | DRSC18288 | 0.43 | 0.02 | – | – | –
Dbp45A | DRSC07395 | 0.05 | -0.06 | – | – | –
RabX1 | DRSC04678 | 0.01 | 0.06 | – | – | –
CG1172 + Or83a | DRSC12357 | 0.17 | 0.52 | – | – | –
CG6980 | DRSC16162 | 0.24 | 0.43 | – | – | –
Lcp1 | DRSC07455 | 0.49 | 0.22 | – | – | –
CG11300 | DRSC04104 | 0.18 | 0.43 | – | – | –
CG12729 | DRSC17884 | 0.33 | 0.23 | – | – | –
CG5043 | DRSC02805 | -0.25 | -0.12 | – | – | –
CG4408 | DRSC15574 | 0.02 | 0.19 | – | – | –
kl-3 (retired record) | DRSC20730 | 0.41 | -0.12 | – | – | –
kl-3 (retired record) | DRSC20891 | 0.53 | 0.27 | – | – | –
kl-3 (retired record) | DRSC20934 | -0.94 | 0.01 | – | – | –
CG6865 | DRSC10732 | 0.2 | -0.1 | – | – | –
SdhA | DRSC07547 | 0.37 | 0.2 | – | – | –
Prtl99C | DRSC15049 | 0.06 | -0.21 | – | – | –
CG12539 | DRSC19470 | 0.31 | 0.45 | – | – | –
Takl1 | DRSC13443 | 0.02 | 0.57 | – | – | –
CG10764 | DRSC06000 | 0.22 | 0.17 | – | – | –
CG8958 | DRSC20134 | 0.15 | 0.28 | – | – | –
CG33981 + fab1 | DRSC07412 | -0.07 | -0.09 | – | – | –
DEF8 | DRSC09840 | 0.35 | 0.34 | – | – | –
mmm | DRSC10208 | 0.47 | 0.4 | – | – | –
regucalcin | DRSC18908 | -0.11 | 0.78 | – | – | –
regucalcin | DRSC20366 | 0.38 | 0.81 | – | – | –
Egm | DRSC07319 | 0.3 | 0.21 | – | – | –
Egm | DRSC22860 | 0.8 | 0.87 | – | – | –
Prosbeta4R2 | DRSC00503 | 0.29 | 0.43 | – | – | –
CG31848 | DRSC01309 | 0.16 | 0.06 | – | – | –
Hacl | DRSC06061 | 0.43 | 0.11 | – | – | –
CG17283 | DRSC15219 | 0.53 | 0.55 | – | – | –
Fnta | DRSC00557 | 0.29 | 0.28 | – | – | –
Fkbp59 | DRSC03323 | 0.17 | 0.22 | – | – | –
amon | DRSC13784 | 0.17 | 0.3 | – | – | –
amon | DRSC16900 | 0.58 | 0.24 | 0.36 | 0.37 | –

9 entries from above, limited to “z-score, replicate 2”:
CG33981 + fab1 [DRSC07412]	-0.09
DEF8 [DRSC09840]	0.34
mmm [DRSC10208]	0.4
regucalcin [DRSC18908]	0.78
regucalcin [DRSC20366]	0.81
Egm [DRSC07319]	0.21
Egm [DRSC22860]	0.87
Prosbeta4R2 [DRSC00503]	0.43
CG31848 [DRSC01309]	0.06
